Measured values: patent publication EP0665886B1 (COLD SPRING HARBOR LABORATORY, dated 2003)
Results are given in words; binding and its absence hold for the method and conditions named. For part of these data: In cells and extracts the contact can be indirect. Some entries that bind do so weakly or less than the wild type.

Amino acid sequences for entries named in this document (tags omitted).
UniProt P06493: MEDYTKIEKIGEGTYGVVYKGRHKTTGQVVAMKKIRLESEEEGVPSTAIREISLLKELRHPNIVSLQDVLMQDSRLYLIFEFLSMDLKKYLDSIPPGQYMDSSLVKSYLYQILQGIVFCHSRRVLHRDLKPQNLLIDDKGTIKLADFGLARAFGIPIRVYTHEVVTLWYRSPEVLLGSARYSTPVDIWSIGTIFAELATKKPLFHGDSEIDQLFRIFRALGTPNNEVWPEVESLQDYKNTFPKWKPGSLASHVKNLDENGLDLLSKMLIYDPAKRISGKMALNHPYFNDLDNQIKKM
UniProt P30281: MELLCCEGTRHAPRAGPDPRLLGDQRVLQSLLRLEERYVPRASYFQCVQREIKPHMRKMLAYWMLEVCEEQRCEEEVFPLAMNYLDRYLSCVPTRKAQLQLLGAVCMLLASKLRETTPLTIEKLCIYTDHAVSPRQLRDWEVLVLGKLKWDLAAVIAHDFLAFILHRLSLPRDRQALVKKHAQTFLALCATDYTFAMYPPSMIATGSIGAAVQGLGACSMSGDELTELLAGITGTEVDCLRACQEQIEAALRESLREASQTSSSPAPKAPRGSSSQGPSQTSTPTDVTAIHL
UniProt P11802: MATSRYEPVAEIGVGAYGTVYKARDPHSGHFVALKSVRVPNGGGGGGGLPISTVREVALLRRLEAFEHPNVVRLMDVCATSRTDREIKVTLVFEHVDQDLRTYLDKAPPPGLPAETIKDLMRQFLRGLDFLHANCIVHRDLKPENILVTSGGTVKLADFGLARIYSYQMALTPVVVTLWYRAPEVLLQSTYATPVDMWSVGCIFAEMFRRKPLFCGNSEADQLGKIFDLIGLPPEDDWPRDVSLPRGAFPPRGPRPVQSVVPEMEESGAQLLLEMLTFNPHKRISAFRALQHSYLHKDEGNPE
UniProt P24385: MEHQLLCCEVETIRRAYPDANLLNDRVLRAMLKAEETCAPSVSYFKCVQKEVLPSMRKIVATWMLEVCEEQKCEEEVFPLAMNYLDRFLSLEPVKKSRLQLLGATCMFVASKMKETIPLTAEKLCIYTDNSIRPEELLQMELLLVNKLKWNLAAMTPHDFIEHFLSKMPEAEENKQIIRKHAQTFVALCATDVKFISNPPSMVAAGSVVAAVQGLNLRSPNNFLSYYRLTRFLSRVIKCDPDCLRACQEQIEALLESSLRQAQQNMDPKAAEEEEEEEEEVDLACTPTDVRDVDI
UniProt P20248: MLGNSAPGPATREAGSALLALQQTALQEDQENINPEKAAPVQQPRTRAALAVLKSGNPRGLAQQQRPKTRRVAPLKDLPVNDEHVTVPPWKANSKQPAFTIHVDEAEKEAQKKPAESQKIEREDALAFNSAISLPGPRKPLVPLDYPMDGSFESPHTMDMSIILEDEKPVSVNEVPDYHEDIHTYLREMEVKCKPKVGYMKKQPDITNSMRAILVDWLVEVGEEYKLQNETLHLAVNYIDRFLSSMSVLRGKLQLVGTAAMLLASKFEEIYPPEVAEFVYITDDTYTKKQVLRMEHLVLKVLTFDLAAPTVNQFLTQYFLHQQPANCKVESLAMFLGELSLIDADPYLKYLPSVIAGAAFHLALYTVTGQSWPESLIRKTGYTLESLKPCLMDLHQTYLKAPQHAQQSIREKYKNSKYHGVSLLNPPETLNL
UniProt P12004: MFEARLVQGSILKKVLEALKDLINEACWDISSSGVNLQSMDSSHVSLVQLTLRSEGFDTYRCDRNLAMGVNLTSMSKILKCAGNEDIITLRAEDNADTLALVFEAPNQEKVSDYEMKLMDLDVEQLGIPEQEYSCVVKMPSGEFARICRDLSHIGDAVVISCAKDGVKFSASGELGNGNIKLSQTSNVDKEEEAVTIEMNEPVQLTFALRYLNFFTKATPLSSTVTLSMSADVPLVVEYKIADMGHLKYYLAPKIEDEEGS

Key:
[1] = biological target: human CDC2 (human) (UniProt P06493); experiment: co-immunoprecipitation of HSF43 lysate
[2] = biological target: human CDC2 (human) (UniProt P06493); experiment: co-immunoprecipitation, HeLa and 293 lysates
[3] = biological target: human CDC2 (human) (UniProt P06493); experiment: reciprocal co-immunoprecipitation, WI38 and VA13 lysates
[4] = biological target: human CDC2 (human) (UniProt P06493); experiment: anti-cyclin A immunoprecipitation of WI38 and HSF43 lysates
[5] = biological target: human cyclin D3 (human) (UniProt P30281); experiment: co-immunoprecipitation and Western blot
[6] = biological target: human CDK4 (human) (UniProt P11802); experiment: co-immunoprecipitation, V8 mapping

**Q.** Which binding [1] does the source give for “human cyclin D1 (from UniProt P24385 1-295) (other; other documents disagree on this pair)” here?
**A.** binds

**Q.** Which binding [2] does the source give for “cyclin A (from UniProt P20248 1-432) (other; other documents disagree on this pair)” here?
**A.** binds

**Q.** What about the binding [3] of the same substance?
**A.** binds

**Q.** What about the binding [4] of the same substance?
**A.** binds

**Q.** How did the binding [5] turn out when “Proliferating Cell Nuclear Antigen, PCNA (from UniProt P12004 1-261)” was run?
**A.** binds

**Q.** “human cyclin D3 (from UniProt P30281 1-292)” was tested. Which binding [6] did it give?
**A.** binds
